Assay results published in article PMC10907494 (Amino Acids, 2024).
HELM strings list residues between dots; [ac] is acetyl, [am] amide, other brackets name non-standard units.

Experiments:
[1] = general procedure: Fmoc solid-phase peptide synthesis; Rink Amide MBHA resin (0.68 mmol/g); Fmoc-Leu-Wang resin (0.65 mmol/g); HATU/HOBt/DIEA; conditions: whole synthesis; for final HPLC purity: 210 nm
[2] = general procedure: Fmoc solid-phase peptide synthesis; Fmoc-Rink Amide MBHA resin (0.68 mmol/g); HATU/HOBt/DIEA; conditions: whole synthesis; for final HPLC purity: 210 nm

| Substance | isolated yield [1] | final HPLC purity [1] | isolated yield [2] | final HPLC purity [2] |
| --- | --- | --- | --- | --- |
| H-(cyclo-m,m)-[Phe-Gly-Gly-Phe]-Leu-NH2 | 8.8% | 97.6% |  |  |
| H-(cyclo-m,p)-[Phe-Gly-Gly-Phe]-Leu-NH2 | 13.1% | 97.0% |  |  |
| H-(cyclo-p,m)-[Phe-Gly-Gly-Phe]-Leu-NH2 | 9.5% | 97.8% |  |  |
| PEPTIDE1{F.G.G.F.L.[am]}$$$$V2.0 |  |  | 76% | 99.4% |
| PEPTIDE1{Y.G.G.F.L.[am]}$$$$V2.0 |  |  | 79% | 99.3% |
| PEPTIDE1{Y.G.G.F.M.[am]}$$$$V2.0 |  |  | 68% | 94.8% |
| PEPTIDE1{Y.G.G.Y.L.[am]}$$$$V2.0 |  |  | 68% | 97.8% |
| PEPTIDE1{[Tyr-m].G.G.[Phe-p].L.[am]}$PEPTIDE1,PEPTIDE1,1:R3-4:R3$$$V2.0 | 13.1% | 98.2% |  |  |
| PEPTIDE1{[Tyr-m].G.G.[Tyr-m].L.[am]}$PEPTIDE1,PEPTIDE1,1:R3-4:R3$$$V2.0 | 15.1% | 98.8% |  |  |
